Our source for the log2 fold change values is the supplement of paper PMC10849652.

Protein sequences, listed by entry. Tags and fused reporters are not part of them. Lines headed by an entry give the natural chain unless they say otherwise; changes in a name come on top.
UniProt P53992: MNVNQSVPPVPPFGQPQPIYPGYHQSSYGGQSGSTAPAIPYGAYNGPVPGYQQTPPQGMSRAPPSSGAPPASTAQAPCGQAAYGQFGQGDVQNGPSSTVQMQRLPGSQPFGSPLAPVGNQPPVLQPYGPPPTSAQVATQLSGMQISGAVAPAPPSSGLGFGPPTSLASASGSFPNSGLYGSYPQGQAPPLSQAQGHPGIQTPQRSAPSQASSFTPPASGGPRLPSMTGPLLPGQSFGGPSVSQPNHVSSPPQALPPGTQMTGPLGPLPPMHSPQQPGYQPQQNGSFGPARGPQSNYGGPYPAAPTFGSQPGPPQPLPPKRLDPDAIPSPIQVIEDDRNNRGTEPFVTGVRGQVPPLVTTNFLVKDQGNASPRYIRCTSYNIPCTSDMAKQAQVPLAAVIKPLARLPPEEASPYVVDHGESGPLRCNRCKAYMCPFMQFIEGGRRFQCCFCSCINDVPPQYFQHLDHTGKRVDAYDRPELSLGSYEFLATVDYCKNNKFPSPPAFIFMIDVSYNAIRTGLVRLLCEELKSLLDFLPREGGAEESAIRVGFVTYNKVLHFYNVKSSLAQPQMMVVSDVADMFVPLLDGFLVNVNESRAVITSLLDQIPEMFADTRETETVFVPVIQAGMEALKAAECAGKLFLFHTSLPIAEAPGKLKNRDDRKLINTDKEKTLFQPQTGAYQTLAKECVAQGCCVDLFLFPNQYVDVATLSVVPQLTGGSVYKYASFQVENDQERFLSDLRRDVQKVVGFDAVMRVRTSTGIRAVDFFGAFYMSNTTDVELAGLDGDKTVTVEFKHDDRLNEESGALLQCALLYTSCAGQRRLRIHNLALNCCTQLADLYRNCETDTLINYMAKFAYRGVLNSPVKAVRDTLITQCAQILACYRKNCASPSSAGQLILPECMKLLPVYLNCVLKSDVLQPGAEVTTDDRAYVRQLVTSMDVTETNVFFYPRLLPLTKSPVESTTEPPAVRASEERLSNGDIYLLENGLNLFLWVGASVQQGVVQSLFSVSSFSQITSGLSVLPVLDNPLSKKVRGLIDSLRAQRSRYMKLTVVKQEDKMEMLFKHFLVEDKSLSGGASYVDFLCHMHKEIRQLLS
UniProt Q9UHR5: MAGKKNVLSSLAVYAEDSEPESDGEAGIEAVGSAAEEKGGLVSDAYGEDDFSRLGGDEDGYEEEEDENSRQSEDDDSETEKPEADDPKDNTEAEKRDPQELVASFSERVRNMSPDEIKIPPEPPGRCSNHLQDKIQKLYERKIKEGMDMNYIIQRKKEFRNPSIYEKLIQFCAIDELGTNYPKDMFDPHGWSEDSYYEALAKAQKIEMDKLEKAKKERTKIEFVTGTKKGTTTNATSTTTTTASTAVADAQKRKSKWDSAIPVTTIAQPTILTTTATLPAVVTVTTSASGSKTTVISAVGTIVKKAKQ
UniProt Q99470: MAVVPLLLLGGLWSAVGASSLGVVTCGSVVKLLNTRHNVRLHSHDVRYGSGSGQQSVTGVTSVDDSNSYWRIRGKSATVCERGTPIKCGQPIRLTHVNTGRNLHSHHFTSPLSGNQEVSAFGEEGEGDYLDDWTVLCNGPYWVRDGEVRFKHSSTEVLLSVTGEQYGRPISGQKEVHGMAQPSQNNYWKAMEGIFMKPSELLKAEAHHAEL
UniProt Q9Y512: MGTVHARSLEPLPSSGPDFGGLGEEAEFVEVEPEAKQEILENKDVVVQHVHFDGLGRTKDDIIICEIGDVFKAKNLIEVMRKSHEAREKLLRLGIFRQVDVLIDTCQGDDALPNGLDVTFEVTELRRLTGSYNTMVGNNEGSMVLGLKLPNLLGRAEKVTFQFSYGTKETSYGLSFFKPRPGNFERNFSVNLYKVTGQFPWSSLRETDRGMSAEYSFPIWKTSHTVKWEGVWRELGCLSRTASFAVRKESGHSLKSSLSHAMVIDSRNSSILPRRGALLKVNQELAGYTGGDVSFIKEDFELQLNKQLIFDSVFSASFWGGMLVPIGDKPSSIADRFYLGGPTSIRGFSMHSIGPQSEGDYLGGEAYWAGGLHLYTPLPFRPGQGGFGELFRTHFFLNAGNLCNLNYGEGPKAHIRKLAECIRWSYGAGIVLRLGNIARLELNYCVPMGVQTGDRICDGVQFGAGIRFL
UniProt O75326: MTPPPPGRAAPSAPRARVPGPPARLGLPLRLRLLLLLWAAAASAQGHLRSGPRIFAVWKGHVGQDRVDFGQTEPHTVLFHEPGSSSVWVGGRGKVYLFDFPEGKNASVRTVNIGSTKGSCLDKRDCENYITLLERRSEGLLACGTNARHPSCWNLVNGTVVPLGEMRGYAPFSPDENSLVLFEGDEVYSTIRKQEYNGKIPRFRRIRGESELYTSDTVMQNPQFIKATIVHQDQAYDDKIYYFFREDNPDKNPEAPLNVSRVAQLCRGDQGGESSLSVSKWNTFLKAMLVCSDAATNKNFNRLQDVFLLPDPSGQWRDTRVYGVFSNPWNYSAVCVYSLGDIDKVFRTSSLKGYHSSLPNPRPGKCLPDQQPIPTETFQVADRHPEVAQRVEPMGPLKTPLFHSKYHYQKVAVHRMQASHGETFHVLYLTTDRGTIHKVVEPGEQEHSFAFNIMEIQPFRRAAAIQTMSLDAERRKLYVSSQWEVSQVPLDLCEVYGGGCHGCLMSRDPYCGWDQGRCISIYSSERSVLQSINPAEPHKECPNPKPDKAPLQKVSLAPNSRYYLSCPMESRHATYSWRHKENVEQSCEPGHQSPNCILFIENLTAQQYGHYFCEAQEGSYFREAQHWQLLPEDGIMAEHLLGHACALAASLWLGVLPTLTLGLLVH
UniProt P60468, whole entry, looked up: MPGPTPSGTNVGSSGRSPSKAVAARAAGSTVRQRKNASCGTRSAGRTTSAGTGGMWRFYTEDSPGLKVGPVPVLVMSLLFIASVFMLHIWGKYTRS
UniProt Q8WU76: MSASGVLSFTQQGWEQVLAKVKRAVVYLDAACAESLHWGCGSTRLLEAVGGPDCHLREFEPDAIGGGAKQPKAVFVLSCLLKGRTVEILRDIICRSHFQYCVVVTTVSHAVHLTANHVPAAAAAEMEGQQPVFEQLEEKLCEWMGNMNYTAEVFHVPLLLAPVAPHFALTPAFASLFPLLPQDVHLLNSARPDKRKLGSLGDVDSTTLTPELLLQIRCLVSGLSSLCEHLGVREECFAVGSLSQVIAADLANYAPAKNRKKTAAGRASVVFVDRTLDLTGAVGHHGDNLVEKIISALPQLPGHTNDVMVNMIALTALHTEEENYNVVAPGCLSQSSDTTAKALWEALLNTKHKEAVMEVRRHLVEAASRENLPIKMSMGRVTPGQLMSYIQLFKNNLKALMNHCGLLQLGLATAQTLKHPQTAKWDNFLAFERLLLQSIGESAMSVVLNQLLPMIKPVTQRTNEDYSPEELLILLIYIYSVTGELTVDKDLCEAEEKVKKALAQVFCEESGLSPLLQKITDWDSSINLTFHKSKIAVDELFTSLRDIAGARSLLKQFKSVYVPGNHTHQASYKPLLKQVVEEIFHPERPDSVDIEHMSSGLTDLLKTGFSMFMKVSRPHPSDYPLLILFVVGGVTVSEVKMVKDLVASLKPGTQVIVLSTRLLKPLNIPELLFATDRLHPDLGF
UniProt O95104: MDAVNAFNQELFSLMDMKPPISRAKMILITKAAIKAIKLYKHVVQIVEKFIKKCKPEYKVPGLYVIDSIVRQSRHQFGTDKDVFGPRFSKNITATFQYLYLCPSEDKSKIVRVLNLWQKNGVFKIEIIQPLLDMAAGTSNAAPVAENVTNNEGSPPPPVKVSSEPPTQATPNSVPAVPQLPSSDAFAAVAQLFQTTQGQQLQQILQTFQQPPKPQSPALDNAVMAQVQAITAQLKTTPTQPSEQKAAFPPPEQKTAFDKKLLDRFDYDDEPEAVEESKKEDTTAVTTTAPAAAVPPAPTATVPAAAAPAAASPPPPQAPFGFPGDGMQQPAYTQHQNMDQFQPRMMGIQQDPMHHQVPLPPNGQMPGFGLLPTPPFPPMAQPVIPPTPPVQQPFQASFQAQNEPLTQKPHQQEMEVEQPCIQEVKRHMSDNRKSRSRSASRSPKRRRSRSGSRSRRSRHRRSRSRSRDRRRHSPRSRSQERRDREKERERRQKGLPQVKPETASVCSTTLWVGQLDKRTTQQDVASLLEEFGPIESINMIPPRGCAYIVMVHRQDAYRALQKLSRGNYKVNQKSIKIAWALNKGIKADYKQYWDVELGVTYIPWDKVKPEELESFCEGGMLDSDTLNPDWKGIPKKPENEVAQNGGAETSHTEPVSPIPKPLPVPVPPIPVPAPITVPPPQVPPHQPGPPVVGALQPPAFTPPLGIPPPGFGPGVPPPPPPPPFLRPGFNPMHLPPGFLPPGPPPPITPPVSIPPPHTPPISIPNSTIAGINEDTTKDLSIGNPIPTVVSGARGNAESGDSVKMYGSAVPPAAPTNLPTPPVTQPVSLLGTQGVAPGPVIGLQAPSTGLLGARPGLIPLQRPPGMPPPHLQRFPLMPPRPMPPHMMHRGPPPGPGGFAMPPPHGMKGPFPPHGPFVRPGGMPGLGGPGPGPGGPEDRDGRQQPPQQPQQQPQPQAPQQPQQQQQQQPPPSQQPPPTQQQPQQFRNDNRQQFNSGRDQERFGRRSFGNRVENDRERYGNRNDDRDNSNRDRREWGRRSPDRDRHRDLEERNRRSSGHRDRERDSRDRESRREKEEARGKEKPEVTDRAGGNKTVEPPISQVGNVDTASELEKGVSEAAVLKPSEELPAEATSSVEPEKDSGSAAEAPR
UniProt P61619, whole entry, looked up: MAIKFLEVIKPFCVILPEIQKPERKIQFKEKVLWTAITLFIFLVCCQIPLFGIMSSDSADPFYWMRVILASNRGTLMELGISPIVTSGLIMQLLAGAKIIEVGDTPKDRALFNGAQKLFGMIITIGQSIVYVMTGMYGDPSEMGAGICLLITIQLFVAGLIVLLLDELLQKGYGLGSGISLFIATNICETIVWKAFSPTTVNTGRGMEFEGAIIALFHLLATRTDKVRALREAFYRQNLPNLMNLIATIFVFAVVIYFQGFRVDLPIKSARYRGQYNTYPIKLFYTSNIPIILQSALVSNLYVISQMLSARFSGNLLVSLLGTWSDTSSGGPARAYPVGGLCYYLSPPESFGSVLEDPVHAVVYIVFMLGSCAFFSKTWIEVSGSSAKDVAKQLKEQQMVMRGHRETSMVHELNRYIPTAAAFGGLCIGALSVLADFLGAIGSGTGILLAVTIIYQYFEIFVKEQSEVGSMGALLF
UniProt Q9H7N4: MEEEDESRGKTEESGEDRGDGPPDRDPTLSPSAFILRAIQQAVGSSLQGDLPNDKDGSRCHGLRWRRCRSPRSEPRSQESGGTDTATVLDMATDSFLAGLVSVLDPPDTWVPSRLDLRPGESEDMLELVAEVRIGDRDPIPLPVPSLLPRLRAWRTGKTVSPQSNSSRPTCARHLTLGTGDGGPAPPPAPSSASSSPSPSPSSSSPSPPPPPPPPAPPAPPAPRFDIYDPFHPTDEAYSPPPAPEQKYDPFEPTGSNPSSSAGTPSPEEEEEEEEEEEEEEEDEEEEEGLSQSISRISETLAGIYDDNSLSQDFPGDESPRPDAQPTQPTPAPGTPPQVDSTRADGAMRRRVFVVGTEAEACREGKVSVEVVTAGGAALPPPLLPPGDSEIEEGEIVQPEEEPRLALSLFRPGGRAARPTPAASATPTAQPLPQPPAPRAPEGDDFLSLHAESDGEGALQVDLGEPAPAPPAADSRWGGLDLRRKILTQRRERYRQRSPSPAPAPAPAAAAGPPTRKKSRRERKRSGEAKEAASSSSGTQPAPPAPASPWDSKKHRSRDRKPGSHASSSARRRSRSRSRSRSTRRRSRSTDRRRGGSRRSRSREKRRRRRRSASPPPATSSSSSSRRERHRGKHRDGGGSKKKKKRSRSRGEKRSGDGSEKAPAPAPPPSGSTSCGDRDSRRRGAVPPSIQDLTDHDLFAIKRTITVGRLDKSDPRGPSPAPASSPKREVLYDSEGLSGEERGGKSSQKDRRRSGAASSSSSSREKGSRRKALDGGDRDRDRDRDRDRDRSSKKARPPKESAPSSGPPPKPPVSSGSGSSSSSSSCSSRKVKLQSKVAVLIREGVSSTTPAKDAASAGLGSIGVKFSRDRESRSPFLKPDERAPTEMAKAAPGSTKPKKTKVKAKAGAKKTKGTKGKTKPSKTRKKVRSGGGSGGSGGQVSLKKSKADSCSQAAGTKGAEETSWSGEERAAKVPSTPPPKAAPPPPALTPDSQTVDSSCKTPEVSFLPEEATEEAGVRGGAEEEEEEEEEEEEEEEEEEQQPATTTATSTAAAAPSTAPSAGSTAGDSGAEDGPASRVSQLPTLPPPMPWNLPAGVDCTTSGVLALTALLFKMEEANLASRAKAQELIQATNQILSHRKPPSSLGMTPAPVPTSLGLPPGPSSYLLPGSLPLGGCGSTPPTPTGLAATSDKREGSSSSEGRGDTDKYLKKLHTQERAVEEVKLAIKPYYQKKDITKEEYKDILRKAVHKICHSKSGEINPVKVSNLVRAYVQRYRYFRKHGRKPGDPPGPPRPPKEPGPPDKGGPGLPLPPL

Common to all, as to assay: log2 fold change, soluble protein after heating vs DMSO (PISA); higher = thermal stabilisation; K562 lysate, 10 uM; active = over 0.2 and 3.5 SD of the protein, either way, in both replicates (recomputed)
Compound in assay [1]: C1=CC=C(C=C1)[C@H](COC2=CC3=C(C=C2)NC(=O)N3)NC(=O)C4=CC=CN(C4=O)CC5=CC(=C(C=C5)F)F
The method in brief: (§1)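 Pellets of K562 cells were dounce-homogenised in PBS pH 7.4 with 1 mM MgCl2, and the crude extract was held at 1 mg/mL protein for a 30 min treatment with 10 μM compound. Aliquots were heated for 3 min over 48°C-58°C and pooled before NP-40 was added to 0.5% at 4°C. The supernatant from 21,000xg for 90 min was quantified by TMTpro 16plex LC-MS/MS with channel sums equalised. Values are reported from duplicates as log-two fold change in thermal stability relative to solvent controls.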

Compound in assay [2]: CC1=C(SC2=C1C(=N[C@H](C3=NN=C(N32)C)CC(=O)N)C4=CC=C(C=C4)Cl)C
The method in brief:
as §1

Compound in assay [3]: CC1=C2C(=CC=C1)N=C(N(C2=O)C3=CC=CC=C3C)CN4C=NC5=C(N=CN=C54)N
The method in brief: as §1

Compound in assay [4]: Cc1sc2c(c1C)C(c1ccc(Cl)cc1)=N[C@@H](CC(=O)OC(C)(C)C)c1nnc(C)n1-2
The method in brief: as §1

Compound in assay [5]: c1ccc([C@@H]2C[C@H]2NC2CCNCC2)cc1
An outline of the steps:
as §1

This is one part of the list.

Consider SEC24C (UniProt P53992), for which the log2 fold change in assay [1] is inactive: -0.012; in assay [2], inactive: 0.008; in assay [3], inactive: 0; in assay [4] it was inactive: 0.03; in assay [5], inactive: 0.042.
With SAP30BP (UniProt Q9UHR5), the log2 fold change in assay [1] was inactive: 0.055; in assay [2] it was inactive: 0; in assay [3], inactive: 0; in assay [4] it was inactive: 0.013; in assay [5], inactive: -0.02.
For SEMA4C (UniProt Q9C0C4), the log2 fold change was inactive: 0.009 in assay [1]; inactive: -0.023 in assay [2]; inactive: 0.039 in assay [3]; inactive: -0.032 in assay [4]; inactive: -0.012 in assay [5].
Take SDF2L1 (UniProt Q9HCN8): the log2 fold change in assay [1] is inactive: 0.01; in assay [2], inactive: 0.006; in assay [3], inactive: 0; in assay [4], inactive: 0.022; in assay [5] it was inactive: -0.041.
Regarding SDF2 (UniProt Q99470), the log2 fold change is inactive: 0.007 in assay [1] and inactive: 0.051 in assay [2].
SEC23A (UniProt Q15436): the log2 fold change is inactive: -0.002 in assay [1]; inactive: -0.033 in assay [2]; inactive: -0.035 in assay [3]; inactive: -0.003 in assay [4]; inactive: 0.103 in assay [5].
On to SAMM50 (UniProt Q9Y512), for which the log2 fold change in assay [1] is inactive: 0.027; in assay [2], inactive: -0.024; in assay [3], inactive: 0; in assay [4], inactive: 0.01; in assay [5], inactive: -0.013.
Turning to SEMA7A (UniProt O75326), the log2 fold change is inactive: 0.052 in assay [1]; inactive: 0.017 in assay [2]; inactive: 0.035 in assay [3]; inactive: -0.023 in assay [4]; inactive: 0.038 in assay [5].
In the same order, the values of SEC61B (UniProt P60468) are inactive: 0.09, inactive: -0.032, inactive: -0.026, inactive: 0.013 and inactive: -0.036.
As for SCFD2 (UniProt Q8WU76), the log2 fold change in assay [1] was inactive: 0.003; in assay [2], inactive: -0.018; in assay [3], inactive: -0.01; in assay [4], inactive: -0.053; in assay [5] it was inactive: -0.005.
In the same order, the values of SCAF4 (UniProt O95104) are inactive: -0.059, inactive: 0.038, inactive: 0.024, inactive: 0.015 and inactive: 0.
As to SEC61A1 (UniProt P61619), the log2 fold change was inactive: 0.008 in assay [1]; inactive: -0.002 in assay [2]; inactive: -0.029 in assay [3]; inactive: 0.029 in assay [4]; inactive: -0.077 in assay [5].
SCAF1 (UniProt Q9H7N4): the log2 fold change in assay [1] is inactive: 0.112; in assay [2], active: -0.492; in assay [3], inactive: 0.002; in assay [4] it was inactive: -0.007; in assay [5], inactive: 0.019.
As for SEH1L isoform 1 (UniProt Q96EE3), the log2 fold change in assay [1] was inactive: 0.016; in assay [2], inactive: 0.031; in assay [3], inactive: -0.045; in assay [4], inactive: -0.041; in assay [5] it was inactive: -0.028.
Regarding SBDS (UniProt Q9Y3A5), the log2 fold change in assay [1] was inactive: -0.036; in assay [2] it was inactive: 0.03; in assay [3] it was inactive: 0.004; in assay [4] it was inactive: -0.004; in assay [5] it was inactive: -0.016.
